Test results from paper PMC5847621.
Results are given in words; binding and its absence hold for the method and conditions named.

The chains behind the UniProt entries cited, without tags or fusion partners. Where a name states a change or a piece, a line headed by the entry shows the natural chain unless it says otherwise.
UniProt P0C2X0: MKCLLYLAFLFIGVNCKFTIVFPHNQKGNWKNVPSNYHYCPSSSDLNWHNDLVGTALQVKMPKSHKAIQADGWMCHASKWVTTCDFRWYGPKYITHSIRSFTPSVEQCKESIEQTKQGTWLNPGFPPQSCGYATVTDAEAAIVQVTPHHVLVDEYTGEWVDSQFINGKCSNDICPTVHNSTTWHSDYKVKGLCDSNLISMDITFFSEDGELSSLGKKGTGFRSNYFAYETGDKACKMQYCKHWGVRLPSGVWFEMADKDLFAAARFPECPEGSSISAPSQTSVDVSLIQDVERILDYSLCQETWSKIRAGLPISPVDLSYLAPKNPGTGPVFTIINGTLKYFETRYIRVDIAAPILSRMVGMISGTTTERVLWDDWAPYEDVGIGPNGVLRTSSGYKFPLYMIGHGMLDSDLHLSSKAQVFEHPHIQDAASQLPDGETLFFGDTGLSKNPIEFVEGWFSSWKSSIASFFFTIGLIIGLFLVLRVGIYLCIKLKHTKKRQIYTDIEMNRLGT

Columns and labels:
[1] = molecular target: GST-CR2, LDL-R cysteine-rich domain CR2 in fusion with glutathione S-transferase (human) (UniProt P01130); test: pull-down; both purified
[2] = molecular target: GST-CR3, LDL-R cysteine-rich domain CR3 in fusion with glutathione S-transferase (human) (UniProt P01130); test: pull-down; both purified

VSV Gth, soluble form of the ectodomain of VSV glycoprotein G (residues 1-422) (from UniProt P0C2X0 17-438) (domain or fragment)
binding [1]: no binding (condition: at pH 6)
binding [2]: no binding (condition: at pH 6)

VSV glycoprotein G on VSV viral particles and at the surface of VSV-infected BSR cells (from UniProt P0C2X0 17-511)
binding [1]: no binding (condition: at pH 6)
binding [2]: no binding (condition: at pH 6)
